The shares of active, inactive and inconclusive entries below differ from those in the screen. A potency beside an inconclusive call is a rough fit, not a confirmed value. Active and inactive are the calls of the source. Calls come from the whole dose curve; as a rule, active = well fitted cell-killing curve with a large enough effect; inconclusive = small, poorly fitted or top-dose-only effect, or effect the other way; inactive = no such curve, though single readings can be large or run the other way.
Tests used:
[1] = Quantitative High-Throughput drug screen in 47 multiple myeloma cell lines against the NCATS MIPE library collection: KHM11_PLB cell viability assay (AID 1918962); details: KHM11 myeloma cell viability, CellTiter-Glo ATP luminescence, 48 h; viability, % of DMSO control: at 45.8 µM (top of the series) unless noted; note: nearly all actives have a fitted effect of over 35% in size;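 for viability, % of DMSO control: 0% = media only wells and 100% = DMSO treated cells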
How it was run: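 Inhibition of cell viability is measured here. Each line was plated at 500 cells per well, treated with MIPE 4.0 drugs, kept 48 hours at 37C, then assayed for ATP content by CellTiter-Glo luminescence.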

[2] = Quantitative High-Throughput drug screen in 47 multiple myeloma cell lines against the NCATS MIPE library collection: JIM1_ECACC cell viability assay (AID 1918964); details: JIM1 myeloma viability, CellTiter-Glo ATP luminescence, 48 h; viability (% of DMSO): at 45.8 µM (top of the series)
How it was run: (§1)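 Viability readout: CellTiter-Glo luminescence following 5 min room-temperature incubation with reagent. Prior exposure: 48 h, 37C, humidified 5% CO2, 500 cells per well.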

[3] = Quantitative High-Throughput drug screen in 47 multiple myeloma cell lines against the NCATS MIPE library collection: INA6_PLB cell viability assay (AID 1918965; note: nearly all actives have a fitted effect of over 55% in size;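 for viability (% of control): 100% = DMSO-only wells and 0% = media-only wells without cells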); details: INA6 myeloma viability, CellTiter-Glo ATP luminescence, 48 h; viability (% of control): at 45.8 µM (top of the series) unless noted
How it was run: (§2)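 qHTS of the MIPE 4.0 collection: 500 myeloma cells/well, 48 h drug exposure at 37C in 5% CO2, then CellTiter-Glo for 5 min at room temperature before luminescence reading.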

[4] = Quantitative High-Throughput drug screen in 47 multiple myeloma cell lines against the NCATS MIPE library collection: Karpas25_ECACC cell viability assay (AID 1918968; note: nearly all actives have a fitted effect of over 35% in size;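 for viability (% of control): 100% = DMSO only wells and 0% = media only wells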)
How it was run: as §1

[5] = Quantitative High-Throughput drug screen in 47 multiple myeloma cell lines against the NCATS MIPE library collection: KMS27_JCRB cell viability assay (AID 1918970); details: KMS27 myeloma cells, CellTiter-Glo ATP viability, 48 h; viability (% of DMSO): at 45.8 µM (top of the series); note: nearly all actives have a fitted effect of over 30% in size;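 for viability (% of DMSO): 100% = DMSO-only wells and 0% = media-only wells without cells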
How it was run: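 Luminescent ATP read-out (CellTiter-Glo, 5 min at room temperature) after 48 h compound exposure of 500 KMS27_JCRB cells per well; DMSO wells define full viability and media-only wells zero.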

[6] = Quantitative High-Throughput drug screen in 47 multiple myeloma cell lines against the NCATS MIPE library collection: KMS12BM_JCRB cell viability assay (AID 1918971); details: KMS12BM myeloma viability, CellTiter-Glo ATP, 48 h; viability, % of DMSO: at 45.8 µM (top of the series); note: nearly all actives have a fitted effect of over 35% in size;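 for viability, % of DMSO: 100% = DMSO-only wells and 0% = media-only wells without cells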
How it was run: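 Relative luminescence from CellTiter-Glo served as the viability signal, referenced to DMSO-treated (100%) and cell-free medium (0%) controls. Treatment lasted 48 hours at 37C with 500 cells per well.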

[7] = Quantitative High-Throughput drug screen in 47 multiple myeloma cell lines against the NCATS MIPE library collection: JJN3_DSMZ cell viability assay (AID 1918966; note: nearly all actives have a fitted effect of over 50% in size)
How it was run: as §1

[8] = Quantitative High-Throughput drug screen in 47 multiple myeloma cell lines against the NCATS MIPE library collection: KMS12PE_JCRB cell viability assay (AID 1918972); details: KMS12PE myeloma viability, CellTiter-Glo ATP, 48 h; viability: at 45.8 µM (top of the series); note: nearly all actives have a fitted effect of over 30% in size;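 for viability: 100% = DMSO only wells and 0% = wells with media alone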
How it was run: as §2

[9] = Quantitative High-Throughput drug screen in 47 multiple myeloma cell lines against the NCATS MIPE library collection: H1112_PLB cell viability assay (AID 1918967; note: nearly all actives have a fitted effect of over 30% in size)
How it was run: as §1
Potency is the fitted concentration of half-maximal effect.

C[C@@H](NC(=O)c1ncnc(N)c1Cl)c1ncc(C(=O)Nc2cc(C(F)(F)F)c(Cl)cn2)s1
inconclusive: Potency [2] 23.5 µM [cytotoxic, partial curve, poor fit] | Potency [3] 37.2 µM [cytotoxic, single point] | Potency [4] 20.9 µM [cytotoxic, partial curve] | Potency [5] 5.26 µM [cytotoxic, partial curve, poor fit] | Potency [6] 16.6 µM [cytotoxic, partial curve, poor fit]
active: Potency [1] 5.26 µM

Cc1cc2nc3c(=O)[nH]c(=O)nc-3n(CC(O)C(O)C(O)CO)c2cc1C (centres undefined)
inactive: Potency [3] | Potency [4]
inconclusive: Potency [1] 20.9 µM [cytotoxic, partial curve, poor fit] | Potency [2] 0.0017 µM [cytotoxic, full curve, poor fit] | Potency [5] 0.0418 µM [cytotoxic, full curve, poor fit] | Potency [6] 0.0418 µM [cytotoxic, full curve, poor fit]

CC(C)[C@H](O)C(=O)N[C@@H](C)C(=O)N[C@@H]1C(=O)N(C)CCc2ccccc21
inconclusive: Potency [3] 13.2 µM [cytotoxic, single point] | Potency [7] 4.18 µM [cytotoxic, full curve, poor fit] | Potency [6] 1.32 µM [cytotoxic, full curve, poor fit]
inactive: Potency [1] | Potency [2] | Potency [8]

NS(=O)(=O)c1cc(Cl)c(Cl)c(S(N)(=O)=O)c1
inconclusive: Potency [6] 33.2 µM [cytotoxic, single point]
inactive: Potency [1] | Potency [2] | Potency [3] | Potency [4] | Potency [5]

CC(C)OC(=O)OCOP(=O)(CO[C@H](C)Cn1cnc2c(N)ncnc21)OCOC(=O)OC(C)C
active: Potency [6] 7.43 µM
inconclusive: Potency [1] 26.4 µM [cytotoxic, single point] | Potency [2] 13.2 µM [cytotoxic, partial curve, poor fit] | Potency [3] 18.7 µM [cytotoxic, partial curve] | Potency [9] 14.8 µM [cytotoxic, partial curve] | Potency [5] 33.2 µM [cytotoxic, single point]

COc1ccc2c(c1)c(C1=C(c3c[nH]c4ccccc34)C(=O)NC1=O)cn2CCCN(C)C
inconclusive: Potency [1] 0.296 µM [cytotoxic, partial curve, poor fit] | Potency [2] 29.6 µM [cytotoxic, partial curve, poor fit] | Potency [6] 29.6 µM [cytotoxic, single point]
active: Potency [7] 20.9 µM | Potency [5] 18.7 µM | Potency [8] 16.6 µM

CN(C)CCN(Cc1ccc(Cl)cc1)c1ccccn1
inconclusive: Potency [1] 0.0418 µM [rising, full curve, poor fit] | Potency [2] 0.0013 µM [cytotoxic, full curve, poor fit]
inactive: Potency [7] | Potency [6]

O=P(O)(O)C(O)(Cc1cccnc1)P(=O)(O)O
inconclusive: Potency [2] 16.6 µM [cytotoxic, partial curve, poor fit] | Potency [7] 0.0332 µM [rising, full curve, poor fit] | Potency [4] 5.9 µM [rising, partial curve, poor fit] | Potency [6] 0.0026 µM [rising, full curve, poor fit]
inactive: Potency [1] | Potency [9]

CCCS(=O)(=O)Nc1ccc(F)c(C(=O)c2c[nH]c3ncc(Cl)cc23)c1F
inconclusive: Potency [1] 14.8 µM [cytotoxic, partial curve, poor fit] | Potency [2] 20.9 µM [cytotoxic, partial curve, poor fit] | Potency [7] 16.6 µM [cytotoxic, partial curve, poor fit] | Potency [5] 14.8 µM [cytotoxic, partial curve, poor fit] | Potency [6] 14.8 µM [cytotoxic, partial curve, poor fit]

COc1cc2ncnc(Nc3cc(Br)c(O)c(Br)c3)c2cc1OC
active: Potency [8] 6.62 µM
inconclusive: Potency [1] 0.0469 µM [cytotoxic, full curve, poor fit] | Potency [2] 5.26 µM [cytotoxic, full curve] | Potency [7] 3.72 µM [rising, full curve, poor fit] | Potency [4] 0.0074 µM [cytotoxic, full curve, poor fit] | Potency [5] 7.43 µM [cytotoxic, partial curve, poor fit]

COc1ccc2cc1Oc1ccc(cc1)C[C@H]1c3cc(c(OC)cc3CCN1C)Oc1c(OC)c(OC)cc3c1[C@H](C2)N(C)CC3
inconclusive: Potency [1] 18.7 µM [cytotoxic, partial curve] | Potency [2] 0.0012 µM [cytotoxic, full curve, poor fit] | Potency [7] 0.526 µM [cytotoxic, partial curve, poor fit]
active: Potency [5] 3.72 µM | Potency [8] 4.69 µM

CCOC(=O)c1ncn2c1CN(C)C(=O)c1cc(F)ccc1-2
inactive: Potency [2] | Potency [4]
inconclusive: Potency [1] 0.001 µM [cytotoxic] | Potency [7] 4.18 µM [cytotoxic, full curve, poor fit] | Potency [5] 0.0047 µM [cytotoxic, full curve, poor fit]

As a short view, 2 of the compounds above.
COc1cc2ncnc(Nc3cc(Br)c(O)c(Br)c3)c2cc1OC
active: Potency [8] 6.62 µM
inconclusive: Potency [1] 0.0469 µM [cytotoxic, full curve, poor fit] | Potency [2] 5.26 µM [cytotoxic, full curve] | Potency [7] 3.72 µM [rising, full curve, poor fit] | Potency [4] 0.0074 µM [cytotoxic, full curve, poor fit] | Potency [5] 7.43 µM [cytotoxic, partial curve, poor fit]

COc1ccc2cc1Oc1ccc(cc1)C[C@H]1c3cc(c(OC)cc3CCN1C)Oc1c(OC)c(OC)cc3c1[C@H](C2)N(C)CC3
inconclusive: Potency [1] 18.7 µM [cytotoxic, partial curve] | Potency [2] 0.0012 µM [cytotoxic, full curve, poor fit] | Potency [7] 0.526 µM [cytotoxic, partial curve, poor fit]
active: Potency [5] 3.72 µM | Potency [8] 4.69 µM

The listing continues:

O=C(NOC[C@H](O)CO)c1ccc(F)c(F)c1Nc1ccc(I)cc1F
active: Potency [1] 0.0132 µM | Potency [2] 1.66 µM | Potency [9] 0.0148 µM
inconclusive: Potency [7] 37.2 µM [cytotoxic, single point] | Potency [4] 0.105 µM [cytotoxic, full curve, poor fit] | Potency [6] 9.35 µM [cytotoxic, partial curve, poor fit] | Potency [8] 33.2 µM [cytotoxic, single point]

O=C(Nc1ncc(SCCN2CCCC2)s1)[C@]1(c2ccc(S(=O)(=O)C3CC3)cc2)C[C@@H]1C1CCCCC1
active: Potency [1] 16.6 µM | Potency [2] 6.62 µM | Potency [7] 16.6 µM | Potency [5] 7.43 µM

CC(C)C[C@H](NC(=O)c1cc2ccccc2s1)C(=O)N1CCN(C(=O)[C@H](CO)NS(=O)(=O)c2ccc(Cl)cc2Cl)CC1
inactive: Potency [5]
inconclusive: Potency [1] 18.7 µM [cytotoxic, partial curve, poor fit] | Potency [2] 11.8 µM [cytotoxic, single point] | Potency [8] 9.35 µM [cytotoxic, single point]
active: Potency [7] 18.7 µM | Potency [4] 26.4 µM | Potency [6] 18.7 µM

C=CC(=O)Nc1cccc(Oc2nc(Nc3ccc(N4CCN(C)CC4)cc3OC)ncc2Cl)c1
inconclusive: Potency [1] 2.09 µM [cytotoxic, partial curve, poor fit] | Potency [2] 26.4 µM [cytotoxic, single point] | Potency [9] 0.0296 µM [cytotoxic, full curve] | Potency [4] 1.18 µM [cytotoxic, partial curve] | Potency [6] 0.0023 µM [cytotoxic, full curve, poor fit] | Potency [8] 33.2 µM [cytotoxic, single point]

COc1c2occc2cc2ccc(=O)oc12
inactive: Potency [1] | Potency [2] | Potency [9] | Potency [8]
inconclusive: Potency [7] 2.96 µM [cytotoxic, full curve, poor fit] | Potency [4] 9.35 µM [cytotoxic, single point]

COc1cc(Nc2c(C#N)cnc3cc(OCCCN4CCN(C)CC4)c(OC)cc23)c(Cl)cc1Cl
active: Potency [1] 5.26 µM | Potency [7] 18.7 µM | Potency [9] 9.35 µM | Potency [6] 14.8 µM
inconclusive: Potency [2] 0.833 µM [cytotoxic, full curve, poor fit] | Potency [5] 4.18 µM [cytotoxic, partial curve, poor fit] | Potency [8] 0.526 µM [cytotoxic, full curve, poor fit]

Cn1cc(-c2ccc3ncc(Cc4ccc5ncccc5c4)n3n2)cn1
inconclusive: Potency [1] 20.9 µM [cytotoxic, single point] | Potency [2] 0.0935 µM [cytotoxic, full curve, poor fit] | Potency [7] 4.69 µM [rising, partial curve, poor fit] | Potency [5] 0.001 µM [cytotoxic] | Potency [6] 0.0526 µM [rising, full curve, poor fit] | Potency [8] 14.8 µM [cytotoxic, partial curve]

COc1cc2c(c(OC)c1OC)-c1ccc(OC)c(=O)cc1[C@@H](NC(C)=O)CC2
inactive: Potency [2] | Potency [4] | Potency [8]
inconclusive: Potency [1] 0.001 µM [cytotoxic] | Potency [7] 0.0118 µM [cytotoxic, full curve] | Potency [9] 0.0132 µM [cytotoxic, partial curve, poor fit] | Potency [6] 0.0166 µM [cytotoxic, full curve]

FC(F)(F)c1ccc(C=Cc2nc(COc3ccc(CCCCn4ccnn4)cc3)co2)cc1
inactive: Potency [7]
active: Potency [2] 0.0074 µM | Potency [6] 0.0526 µM
inconclusive: Potency [1] 0.0093 µM [cytotoxic, full curve] | Potency [9] 0.0083 µM [cytotoxic, full curve] | Potency [4] 0.0047 µM [cytotoxic, full curve] | viability [8] 35% [cytotoxic]
